These are yes or no findings as the source states them, for the method shown.
Columns and labels:
[1] = biological target: T1, BCL7A, full length human (isoform Q4VC05-2, 231 amino acids) (human), Q4VC05; assay: SEC-MALS; details: remark: other sources report otherwise
T1 chain: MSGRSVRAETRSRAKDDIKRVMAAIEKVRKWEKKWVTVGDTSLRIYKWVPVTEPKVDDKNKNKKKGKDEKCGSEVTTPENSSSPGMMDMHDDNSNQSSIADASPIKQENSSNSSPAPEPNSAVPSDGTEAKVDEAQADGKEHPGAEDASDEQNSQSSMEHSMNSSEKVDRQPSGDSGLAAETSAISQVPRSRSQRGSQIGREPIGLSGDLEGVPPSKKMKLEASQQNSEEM

[2] = biological target: T1, BCL7A, full length human (isoform …); assay: AUC; details: remark: other sources report otherwise

binding [1]: no binding | binding [2]: no binding
B1: BCL7A, full length human (isoform Q4VC05-2, 231 amino acids), Q4VC05-2 1-231 (protein)
chain: MSGRSVRAETRSRAKDDIKRVMAAIEKVRKWEKKWVTVGDTSLRIYKWVPVTEPKVDDKNKNKKKGKDEKCGSEVTTPENSSSPGMMDMHDDNSNQSSIADASPIKQENSSNSSPAPEPNSAVPSDGTEAKVDEAQADGKEHPGAEDASDEQNSQSSMEHSMNSSEKVDRQPSGDSGLAAETSAISQVPRSRSQRGSQIGREPIGLSGDLEGVPPSKKMKLEASQQNSEEM
